Two substances from PMC8649957 can be followed below.

Amino acid sequences for entries named in this document (tags omitted). A change or cut given only in a name is not applied to a line headed by its entry.
UniProt Q9SE45: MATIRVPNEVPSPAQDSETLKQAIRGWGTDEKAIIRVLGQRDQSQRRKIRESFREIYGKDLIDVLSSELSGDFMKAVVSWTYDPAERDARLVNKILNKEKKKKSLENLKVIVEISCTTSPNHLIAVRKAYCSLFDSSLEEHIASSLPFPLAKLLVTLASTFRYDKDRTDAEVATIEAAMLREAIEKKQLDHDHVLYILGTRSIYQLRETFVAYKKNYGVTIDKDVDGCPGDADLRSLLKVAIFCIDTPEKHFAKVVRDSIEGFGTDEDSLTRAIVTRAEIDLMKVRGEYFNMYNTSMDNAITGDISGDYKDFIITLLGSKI
UniProt Q9XEE2: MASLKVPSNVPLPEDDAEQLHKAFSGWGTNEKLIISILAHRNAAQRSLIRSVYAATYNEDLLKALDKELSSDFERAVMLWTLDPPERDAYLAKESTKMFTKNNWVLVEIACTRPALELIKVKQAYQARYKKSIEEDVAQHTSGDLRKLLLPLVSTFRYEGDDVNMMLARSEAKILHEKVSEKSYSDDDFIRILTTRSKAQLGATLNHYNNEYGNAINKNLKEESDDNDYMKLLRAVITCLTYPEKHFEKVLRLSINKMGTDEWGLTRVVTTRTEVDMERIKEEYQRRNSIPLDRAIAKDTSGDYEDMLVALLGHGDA
UniProt Q96524: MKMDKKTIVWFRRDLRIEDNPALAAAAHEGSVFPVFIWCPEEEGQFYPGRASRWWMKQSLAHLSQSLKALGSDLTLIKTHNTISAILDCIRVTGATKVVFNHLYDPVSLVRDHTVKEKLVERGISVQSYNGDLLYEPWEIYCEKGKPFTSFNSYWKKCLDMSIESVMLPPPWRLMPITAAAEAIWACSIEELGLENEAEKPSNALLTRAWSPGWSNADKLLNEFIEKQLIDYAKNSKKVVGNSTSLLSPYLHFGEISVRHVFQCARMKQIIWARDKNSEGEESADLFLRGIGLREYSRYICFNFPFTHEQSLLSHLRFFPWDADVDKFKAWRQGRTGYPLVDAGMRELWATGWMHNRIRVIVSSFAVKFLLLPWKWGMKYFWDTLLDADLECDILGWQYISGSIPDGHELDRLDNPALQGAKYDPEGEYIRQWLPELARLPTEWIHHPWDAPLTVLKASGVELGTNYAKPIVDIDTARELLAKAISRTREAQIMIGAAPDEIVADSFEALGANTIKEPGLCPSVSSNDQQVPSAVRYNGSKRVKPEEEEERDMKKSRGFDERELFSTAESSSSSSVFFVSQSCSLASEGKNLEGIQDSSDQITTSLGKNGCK

No constants are given. Whether binding was seen depends on the method and setting. A result given as binding can be weak or reduced; the word gives no strength. For some of these results: Binding seen in cells or lysates may run through a third protein.

For assay [1], the target named is AtANN3-GST (Arabidopsis thaliana) (UniProt Q9SE45). Put plainly: pull-down; GST pull-down in vitro with purified proteins expressed in E. coli; analysed with anti-GST or anti-HIS antibodies; both purified.
In assay [2] the target is AtANN2-GST (Arabidopsis thaliana) (UniProt Q9XEE2). Described as above.
In assay [3] the target is AtANN3-YNE (Arabidopsis thaliana) (UniProt Q9SE45). Put plainly: split reporter; BiFC with split YFP; the two plasmids co-transformed into Arabidopsis leaf cell protoplasts, incubated 16 h in the dark at 23°C; fluorescence microscopy.
Assay [4] deals with AtANN2-YNE (Arabidopsis thaliana) (UniProt Q9XEE2). The assay is described as above.

As to AtCRY2-HIS (from UniProt Q96524 1-612), the binding result in assay [1] and in assay [2] was “binds” each time.

In the case of AtCRY2-YCE (from UniProt Q96524 1-612), the binding entry in assay [3] and in assay [4] was “binds” each time.
